Reference: the supplement of paper PMC4604168 (melanoma cell lines)
Some of the results follow. Single values are uncertain, as repeats are few or missing.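 The apoptosis fraction was the count of cleaved-PARP antibody-stained nuclei relative to all DNA-stained nuclei, imaged in 1,536-well plates. Screening doses were set so most cells survived, and baseline and induced cleaved-PARP levels vary greatly across cell lines.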

Tested on: MeWo
Test: cleaved PARP positive nuclei fraction relative to DMSO control; melanoma cells; higher = more apoptosis
Settings: library dose: low library concentration; 72 h

Compound | cleaved PARP positive nuclei fraction
Cn1cnc2c(F)c(Nc3ccc(Br)cc3Cl)c(C(=O)NOCCO)cc21 [selumetinib] + O=C(O)[C@@H]1[O][Sb](=[O])([O][Sb]2(=[O])[O][C@H]([C@H](O)CO)[C@H](O)[C@H](C(=O)O)[O]2)[O][C@H]([C@H](O)CO)[C@@H]1O [stibogluconate] (first compound 0.015 µM, partner dose 2 µM) | 106%
Cn1cnc2c(F)c(Nc3ccc(Br)cc3Cl)c(C(=O)NOCCO)cc21 [selumetinib] + CCN(CC)CCNC(=O)c1c(C)[nH]c(/C=C2\C(=O)Nc3ccc(F)cc32)c1C [sunitinib] (first compound 0.015 µM, partner dose 0.4 µM) | 246%
Cn1sc(=O)n(Cc2ccccc2)c1=O + CN(c1ncccc1CNc1nc(Nc2ccc3c(c2)CC(=O)N3)ncc1C(F)(F)F)S(C)(=O)=O [PF562271] (first compound 0.4 µM, partner dose 0.08 µM) | 93.7%
CC1(C)CCC(c2ccc(Cl)cc2)=C(CN2CCN(c3ccc(C(=O)NS(=O)(=O)c4ccc(N[C@H](CCN5CCOCC5)CSc5ccccc5)c(S(=O)(=O)C(F)(F)F)c4)cc3)CC2)C1 + OCc1c[nH]c2ccccc12 [Indole-3-carbinol] (first compound 0.4 µM, partner dose 0.8 µM) | 567%
CC(=O)O[C@@]12CO[C@@H]1C[C@H](O)[C@@]1(C)C(=O)[C@H](O)C3=C(C)[C@@H](OC(=O)[C@H](O)[C@@H](NC(=O)OC(C)(C)C)c4ccccc4)C[C@@](O)([C@@H](OC(=O)c4ccccc4)[C@H]21)C3(C)C [Docetaxel] + NC1(c2ccc(-c3nc4ccn5c(=O)[nH]nc5c4cc3-c3ccccc3)cc2)CCC1 [MK2206] (first compound 0.0001 µM, partner dose 0.4 µM) | 1540%
C[C@]1(O)C[C@@H](c2nc(-c3ccc4ccc(-c5ccccc5)nc4c3)c3c(N)nccn32)C1 + Nc1cccc2c1CN(C1CCC(=O)NC1=O)C2=O [lenalidomide] (first compound 0.4 µM, partner dose 1 µM) | 120%
C[C@@H](N)c1ccc(C(=O)Nc2ccnc3[nH]ccc23)cc1 + C=CCNC1=C2C[C@@H](C)C[C@H](OC)[C@H](O)[C@@H](C)/C=C(\C)[C@H](OC(N)=O)[C@@H](OC)/C=C\C=C(/C)C(=O)NC(=CC1=O)C2=O [Tanespimycin] (first compound 0.4 µM, partner dose 0.002 µM) | 435%

Tested on: RPMI7951
Test: as above
Settings: library dose: low library concentration; 72 h

Compound | cleaved PARP positive nuclei fraction
NC(=O)c1ccc(N(C(N)=O)c2c(F)cccc2F)nc1-c1ccc(F)cc1F + Nc1nc(F)nc2c1ncn2[C@@H]1O[C@H](CO)[C@@H](O)[C@@H]1O [fludarabine] (first compound 0.4 µM, partner dose 0.2 µM) | 160%
Cn1sc(=O)n(Cc2ccccc2)c1=O + CNC(=O)c1cc(Oc2ccc(NC(=O)Nc3ccc(Cl)c(C(F)(F)F)c3)cc2)ccn1 [sorafenib] (first compound 0.4 µM, partner dose 0.4 µM) | 63.2%
COc1ccc(C2=N[C@@H](c3ccc(Cl)cc3)[C@@H](c3ccc(Cl)cc3)N2C(=O)N2CCNC(=O)C2)c(OC(C)C)c1 [Nutlin-3] + CN(c1ncccc1CNc1nc(Nc2ccc3c(c2)CC(=O)N3)ncc1C(F)(F)F)S(C)(=O)=O [PF562271] (first compound 0.1 µM, partner dose 0.08 µM) | 60.4%
CN(c1ncccc1CNc1nc(Nc2ccc3c(c2)CC(=O)N3)ncc1C(F)(F)F)S(C)(=O)=O + Cn1c(=O)n(-c2ccc(C(C)(C)C#N)cc2)c2c3cc(-c4cnc5ccccc5c4)ccc3ncc21 [NVP-BEZ235] (first compound 0.08 µM, partner dose 0.004 µM) | 288%
Cn1sc(=O)n(Cc2ccccc2)c1=O + CCN(CC)CCNC(=O)c1c(C)[nH]c(/C=C2\C(=O)Nc3ccc(F)cc32)c1C [sunitinib] (first compound 0.4 µM, partner dose 0.4 µM) | 25%
CC1(C)CCC(c2ccc(Cl)cc2)=C(CN2CCN(c3ccc(C(=O)NS(=O)(=O)c4ccc(N[C@H](CCN5CCOCC5)CSc5ccccc5)c(S(=O)(=O)C(F)(F)F)c4)cc3)CC2)C1 + Cc1nc(Nc2ncc(C(=O)Nc3c(C)cccc3Cl)s2)cc(N2CCN(CCO)CC2)n1 [dasatanib] (first compound 0.4 µM, partner dose 0.004 µM) | 224%
Cn1cnc2c(F)c(Nc3ccc(Br)cc3Cl)c(C(=O)NOCCO)cc21 [selumetinib] + Cn1c(Nc2ccc(C(F)(F)F)cc2)nc2cc(Oc3ccnc(-c4ncc(C(F)(F)F)[nH]4)c3)ccc21 [CHIR265] (first compound 0.015 µM, partner dose 0.08 µM) | 131%
C[C@@H](N)c1ccc(C(=O)Nc2ccnc3[nH]ccc23)cc1 + Nc1ncn([C@H]2C[C@H](O)[C@@H](CO)O2)c(=O)n1 [decitabine] (first compound 0.4 µM, partner dose 0.1 µM) | 222%
CC1(C)CCC(c2ccc(Cl)cc2)=C(CN2CCN(c3ccc(C(=O)NS(=O)(=O)c4ccc(N[C@H](CCN5CCOCC5)CSc5ccccc5)c(S(=O)(=O)C(F)(F)F)c4)cc3)CC2)C1 + COCC[n+]1c2c(n(Cc3cnccn3)c1C)C(=O)c1ccccc1C2=O [YM155] (first compound 0.4 µM, partner dose 0.0004 µM) | 589%
Cn1sc(=O)n(Cc2ccccc2)c1=O + CS(=O)(=O)CCNCc1ccc(-c2ccc3ncnc(Nc4ccc(OCc5cccc(F)c5)c(Cl)c4)c3c2)o1 [lapatinib] (first compound 0.4 µM, partner dose 0.8 µM) | 108%
Cn1cnc2c(F)c(Nc3ccc(Br)cc3Cl)c(C(=O)NOCCO)cc21 [selumetinib] + Nc1nc(F)nc2c1ncn2[C@@H]1O[C@H](CO)[C@@H](O)[C@@H]1O [fludarabine] (first compound 0.015 µM, partner dose 0.2 µM) | 96%
CS(=O)(=O)c1ccc(C(=O)Nc2ccc(Cl)c(-c3ccccn3)c2)c(Cl)c1 [vismodegib] + CC(C)C[C@H](NC(=O)[C@H](Cc1ccccc1)NC(=O)c1cnccn1)B(O)O [Bortezomib] (first compound 1 µM, partner dose 0.001 µM) | 66.1%
CC1(C)CCC(c2ccc(Cl)cc2)=C(CN2CCN(c3ccc(C(=O)NS(=O)(=O)c4ccc(N[C@H](CCN5CCOCC5)CSc5ccccc5)c(S(=O)(=O)C(F)(F)F)c4)cc3)CC2)C1 + C=C(c1ccc(C(=O)O)cc1)c1cc2c(cc1C)C(C)(C)CCC2(C)C [Bexarotene] (first compound 0.4 µM, partner dose 2 µM) | 168%
CS(=O)(=O)c1ccc(C(=O)Nc2ccc(Cl)c(-c3ccccn3)c2)c(Cl)c1 [vismodegib] + CC(=O)c1c(C)c2cnc(Nc3ccc(N4CCNCC4)cn3)nc2n(C2CCCC2)c1=O [palbociclib] (first compound 1 µM, partner dose 0.04 µM) | 125%
NC(=O)c1ccc(N(C(N)=O)c2c(F)cccc2F)nc1-c1ccc(F)cc1F + C#Cc1cccc(Nc2ncnc3cc(OCCOC)c(OCCOC)cc23)c1 [erlotinib] (first compound 0.4 µM, partner dose 0.8 µM) | 60.2%
CS(=O)(=O)c1ccc(C(=O)Nc2ccc(Cl)c(-c3ccccn3)c2)c(Cl)c1 [vismodegib] + Nc1nc(F)nc2c1ncn2[C@@H]1O[C@H](CO)[C@@H](O)[C@@H]1O [fludarabine] (first compound 1 µM, partner dose 0.2 µM) | 62.5%
NC(=O)c1ccc(N(C(N)=O)c2c(F)cccc2F)nc1-c1ccc(F)cc1F + C=CCNC1=C2C[C@@H](C)C[C@H](OC)[C@H](O)[C@@H](C)/C=C(\C)[C@H](OC(N)=O)[C@@H](OC)/C=C\C=C(/C)C(=O)NC(=CC1=O)C2=O [Tanespimycin] (first compound 0.4 µM, partner dose 0.002 µM) | 81.9%
CC(=O)O[C@@]12CO[C@@H]1C[C@H](O)[C@@]1(C)C(=O)[C@H](O)C3=C(C)[C@@H](OC(=O)[C@H](O)[C@@H](NC(=O)OC(C)(C)C)c4ccccc4)C[C@@](O)([C@@H](OC(=O)c4ccccc4)[C@H]21)C3(C)C [Docetaxel] + C=C(c1ccc(C(=O)O)cc1)c1cc2c(cc1C)C(C)(C)CCC2(C)C [Bexarotene] (first compound 0.0001 µM, partner dose 2 µM) | 155%
CC(=O)O[C@@]12CO[C@@H]1C[C@H](O)[C@@]1(C)C(=O)[C@H](O)C3=C(C)[C@@H](OC(=O)[C@H](O)[C@@H](NC(=O)OC(C)(C)C)c4ccccc4)C[C@@](O)([C@@H](OC(=O)c4ccccc4)[C@H]21)C3(C)C [Docetaxel] + C[C@]1(c2nc3c(C(N)=O)cccc3[nH]2)CCCN1 [Veliparib] (first compound 0.0001 µM, partner dose 1.4 µM) | 329%
CCN(CC)CCNC(=O)c1c(C)[nH]c(/C=C2\C(=O)Nc3ccc(F)cc32)c1C [sunitinib] + OCc1c[nH]c2ccccc12 [Indole-3-carbinol] (first compound 0.4 µM, partner dose 0.8 µM) | 66%
C[C@]1(O)C[C@@H](c2nc(-c3ccc4ccc(-c5ccccc5)nc4c3)c3c(N)nccn32)C1 + CCCS(=O)(=O)Nc1ccc(F)c(C(=O)c2c[nH]c3ncc(Cl)cc23)c1F [PLX4720] (first compound 0.4 µM, partner dose 0.08 µM) | 76%

Some of the entries above in a different format:

| Compound | cleaved PARP positive nuclei fraction |
| --- | --- |
| Cn1sc(=O)n(Cc2ccccc2)c1=O + CS(=O)(=O)CCNCc1ccc(-c2ccc3ncnc(Nc4ccc(OCc5cccc(F)c5)c(Cl)c4)c3c2)o1 [lapatinib] (first compound 0.4 µM, partner dose 0.8 µM) | 108% |
| CS(=O)(=O)c1ccc(C(=O)Nc2ccc(Cl)c(-c3ccccn3)c2)c(Cl)c1 [vismodegib] + CC(=O)c1c(C)c2cnc(Nc3ccc(N4CCNCC4)cn3)nc2n(C2CCCC2)c1=O [palbociclib] (first compound 1 µM, partner dose 0.04 µM) | 125% |
